For some assays here: For at least one compound, name, drawing or mass did not settle the structure. Some results were stated once for a whole list of compounds, not compound by compound.
What was measured:
[1] = tested on: Shigella flexneri M-2A6907; assay: Sensitivity of strains: suppression of growth; format: cell-based; settings: Compound (1) 1.0%; antibiotics disc method
Shigella sonnei B-720 = assay: Sensitivity of strains: suppression of growth; format: cell-based; settings: Compound (1) 1.0%; antibiotics disc method
[2] = tested on: Salmonella paratyphi M-16469; assay: Sensitivity of strains: suppression of growth; format: cell-based; settings: Compound (1) 1.0%; antibiotics disc method
[3] = tested on: Corynebacterium diphtheriae B-670; assay: Sensitivity of strains: suppression of growth; format: cell-based; settings: Compound (1) 1.0%; antibiotics disc method
[4] = Pharmacokinetics, biologically active concentration in the blood; format: in vivo, mice; settings: administered intraperitoneally, and intragastrically

| SMILES | Suppression of Growth (+/−) [1] | Suppression of Growth (+/−) (Shigella sonnei B-720) | Suppression of Growth (+/−) [2] | Suppression of Growth (+/−) [3] | time in biologically active concentration in the blood [4] [hrs] |
| --- | --- | --- | --- | --- | --- |
| CC1(C)S[C@@H]2[C@H](NC(=O)[C@H](N)c3ccccc3)C(=O)N2[C@H]1C(=O)O [Antibiotic 2, ampicillin] | ± | ± | ± | ± |  |
| O=C(N[C@H](CO)[C@H](O)c1ccc([N+](=O)[O-])cc1)C(Cl)Cl [Antibiotic 7, levomicethin] |  | ± | ± |  |  |
| C/C(=C\c1ccc2c(c1)OCO2)[N+](=O)[O-] [Compound (1)] |  |  |  |  | > 24 |
| O=[N+]([O-])/C=C/c1ccc2c(c1)OCO2 [Compound (2), 3,4-methylenedioxy-β-nitrostyrene] |  |  |  |  | > 24 |
